Laboratory results reported in US20160228570A1 (QUEEN MARY AND WESTFIELD COLLEGE, published 2016).
These are yes or no findings as the source states them, for the method shown. Some results given as binding are weak or reduced against the parent protein; the word gives no strength.

The chains behind the UniProt entries cited, without tags or fusion partners. Residues count along the entry.
UniProt P02459, residues 201-1214: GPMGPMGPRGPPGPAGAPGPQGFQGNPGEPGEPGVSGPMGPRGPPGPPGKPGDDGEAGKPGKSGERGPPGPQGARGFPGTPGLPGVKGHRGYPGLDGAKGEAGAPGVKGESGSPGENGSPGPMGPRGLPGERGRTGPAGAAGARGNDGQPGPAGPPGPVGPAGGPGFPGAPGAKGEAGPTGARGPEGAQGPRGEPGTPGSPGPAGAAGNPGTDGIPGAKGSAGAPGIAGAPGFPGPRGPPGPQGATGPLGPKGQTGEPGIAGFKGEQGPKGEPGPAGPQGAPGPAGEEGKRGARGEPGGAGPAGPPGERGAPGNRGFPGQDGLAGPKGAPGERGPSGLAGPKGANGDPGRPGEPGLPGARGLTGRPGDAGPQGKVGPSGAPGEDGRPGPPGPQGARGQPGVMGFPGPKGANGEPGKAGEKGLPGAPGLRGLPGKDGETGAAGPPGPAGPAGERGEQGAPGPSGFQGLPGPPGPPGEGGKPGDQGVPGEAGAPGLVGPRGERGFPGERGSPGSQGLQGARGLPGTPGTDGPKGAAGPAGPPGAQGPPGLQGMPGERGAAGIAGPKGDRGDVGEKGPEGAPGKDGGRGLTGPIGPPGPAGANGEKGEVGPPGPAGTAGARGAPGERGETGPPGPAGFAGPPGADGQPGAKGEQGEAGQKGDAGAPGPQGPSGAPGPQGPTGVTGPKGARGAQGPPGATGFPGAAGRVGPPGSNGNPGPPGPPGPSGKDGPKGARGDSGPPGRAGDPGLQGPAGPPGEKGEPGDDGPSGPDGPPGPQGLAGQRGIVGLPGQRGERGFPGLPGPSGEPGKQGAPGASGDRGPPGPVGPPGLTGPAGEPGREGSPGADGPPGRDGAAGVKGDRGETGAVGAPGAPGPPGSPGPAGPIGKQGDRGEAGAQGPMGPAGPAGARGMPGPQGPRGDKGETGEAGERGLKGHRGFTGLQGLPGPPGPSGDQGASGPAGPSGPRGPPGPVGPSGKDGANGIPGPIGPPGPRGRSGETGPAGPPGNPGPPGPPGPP

Assays:
[1] = molecular target: T1, HOCl modified CII (bovine, UniProt P02459 201-1214, modified with HOCl; residues not stated); assay: phage ELISA screen; Antigen column of Table 3
T1 construct: also called HOCl-CII; HOCl-Collagen II

[2] = molecular target: T2, ribose-modified CII (bovine, UniProt P02459 201-1214, glycated with 2M ribose, overnight at 37 C; residues not stated); assay: phage ELISA screen; Antigen column of Table 3
T2 construct: also called Ribose-CII; glycated CII

[3] = molecular target: T1, HOCl modified CII; assay: ELISA, purified scFv on coated antigen
Description: (§1) Screening for positive anti-modified CII phage clones was first performed by enzyme-linked immunosorbent assay (ELISA), as previously described (Harrison J. L, 1996). Microtiter plate (Nunc, Paisley, UK) wells were coated with 10 μg/ml native or modified CII and incubated with 100 μl phage suspension for 90 minutes. In addition, native and modified BSA were used as negative control. After removal of the supernatants, the amount of bound phage was determined using peroxidase-labeled anti-M13 antibodies (GE Healthcare: Ltd, Little Chalfont, Buckinghamshire) and developed by using 100 mM 3,3′5,5′ tetramethylbenzidine (TMB) as substrate. The reaction was monitored in an ELISA reader at 450 nm with a reference wavelength of 650 nm using GENios plate reader (TECAN, Theale Court, Reading UK) and Magellan software (TECAN, Theale Court, Reading UK)
(§2) The reactive phage clones obtained from E. coli TG-1 bacteria were used to infect E. coli HB2151 non-suppressor bacterial strain to obtain soluble scFv. […] Binding of purified scFv to modified CII was first analyzed by ELISA as above except that mouse anti-myc tag antibody (Santa Cruz Biotechnology, INC, Wembley, UK) followed by anti-mouse-HRP conjugate (Sigma, Dorset, UK) were used to probe bound scFv.

[4] = molecular target: T2, ribose-modified CII; assay: ELISA, purified scFv on coated antigen
Description: as §1, §2

[5] = molecular target: native non-modified collagen type II (CII) (bovine) (UniProt P02459); assay: Western blot, 10 ug/ml scFv as probe on denatured CII
[6] = molecular target: native non-modified collagen type II (CII) (bovine) (UniProt P02459); assay: ELISA, purified scFv on coated antigen
[7] = molecular target: T3, peroxynitrated CII (bovine, UniProt P02459 201-1214, modified with peroxynitrite (ONOO); residues not stated); assay: ELISA, purified scFv on coated antigen
T3 construct: also called CII modified with ONOO; peroxynitrite-modified CII
Description: as §1, §2

[8] = substrate: CII modified with hydroxyl radical (OH) (bovine) (UniProt P02459); assay: ELISA, purified scFv on coated antigen

Measured: binding

B1: scFv 4-11F (scFv)
scFv: EVQLLESGGGLVQPGGSLRLSCAASGFTFSSYAMSWVRQAPGKGLEWVSSISATGSSTYYADSVKGRFTISRDNSKNTLYLQMNSLRAEDTAVYYCAKNYSDFDYWGQGTLVTVSSGGGGSGGGGSGGGGSTDIQMTQSPSSLSASVGDRVTITCRASQSISSYLNWYQQKPGKAPKLLIYSASDLQSGVPSRFSGSGSGTDFTLTISSLQPEDFATYYCQQSSYTPTTFGQGTKVEIKR
binds: [1] | [2]

B2: scFv 1-11E (scFv, not shown: large carriers; small tags and cut ends)
scFv: EVQLLESGGGLVQPGGSLRLSCAASGFTFSSYAMSWVRQAPGKGLEWVSSIDDSGATTYYADSVKGRFTISRDNSKNTLYLQMNSLRAEDTAVYYCAKNYSSFDYWGQGTLVTVSSGGGGSGGGGSGGGGSTDIQMTQSPSSLSASVGDRVTITCRASQSISSYLNWYQQKPGKAPKLLIYYASSLQSGVPSRFSGSGSGTDFTLTISSLQPEDFATYYCQQAANYPTTFGQGTKVEIK
notes: its first MA and last DI may come from cloning into the fusion; also called clone 1-11E; 1-2F
binds: [3] | [4] | [1] | [2] | [5]

B3: scFv 1-4D (scFv)
scFv: EVQLLESGGGLVQPGGSLRLSCAASGFTFSSYAMSWVRQAPGKGLEWVSSIASTGDSTYYADSVKGRFTISRDNSKNTLYLQMNSLRAEDTAVYYCAKNYSSFDYWGQGTLVTVSSGGGGSGGGGSGGGGSTDIQMTQSPSSLSASVGDRVTITCRASQSISSYLNWYQQKPGKAPKLLIYSASALQSGVPSRFSGSGSGTDFTLTISSLQPEDFATYYCQQASNYPTTFGQGTKVEIKR
binds: [1] | [2]

B4: scFv 1-4H (scFv)
scFv: EVQLLESGGGLVQPGGSLRLSCAASGFTFSSYAMSWVRQAPGKGLEWVSSIDAGGNGTYYADSVKGRFTISRDNSKNTLYLQMNSLRAEDTAVYYCAKNYSSFDYWGQGTLVTVSSGGGGSGGGGSGGGGSTDIQMTQSPSSLSASVGDRVTITCRASQSISSYLNWYQQKPGKAPKLLIYYASSLQSGVPSRFSGSGSGTDFTLTISSLQPEDFATYYCQQSDAYPTTFGQGTKVEIKR
binds: [1] | [2]

B5: scFv 1-6G (scFv)
scFv: EVQLLESGGGLVQPGGSLRLSCAASGFTFSSYAMSWVRQAPGKGLEWVSSISTAGTYTDYADSVKGRFTISRDNSKNTLYLQMNSLRAEDTAVYYCAKNYTDFDYWGQGTLVTVSSGGGGSGGGGSGGGGSTDIQMTQSPSSLSASVGDRVTITCRASQSISSYLNWYQQKPGKAPKLLIYSASYLQSGVPSRFSGSGSGTDFTLTISSLQPEDFATYYCQQSNTSPATFGQGTKVEIKR
binds: [1] | [2]

B6: scFv 6-11D (scFv, not shown: small tags and cut ends)
scFv: EVQLLESGGGLVQPGGSLRLSCAASGFTFSSYAMSWVRQAPGKGLEWVSSIDTGGSYTDYADSVKGRFTISRDNSKNTLYLQMNSLRAEDTAVYYCAKSYTTFDYWGQGTLVTVSSGGGGSGGGGSGGGGSTDIQMTQSPSSLSASVGDRVTITCRASQSISSYLNWYQQKPGKAPKLLIYSASYLQSGVPSRFSGSGSGTDFTLTISSLQPEDFATYYCQQGSNSPTTFGQGTKVEIKR
notes: also called clone 6-11D; 4-5H
binds: [6] | [3] | [4] | [7] | [1] | [2] | [8]
